{"source": "PubChem BioAssay AID504764 – Drosophila RNAi Screening Center | 2011", "purpose": "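Knock-downs that raise or lower a Notch target reporter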 (primary screen)", "system": "Drosophila Kc167 cells", "knock-down reagent": "long dsRNA against Drosophila genes", "time to read-out": "about 5 days (4 days dsRNA, then 24 h after transfection)", "challenge": "transfection of constitutively active membrane-tethered Notch lacking the extracellular domain, read 24 h later", "measured": "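Light from a Notch-responsive E(spl)m3 luciferase reporter under active Notch, with control-promoter and no-Notch reporter wells to normalise; raw counts from paired wells a and b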", "scale": "induced reporter light, run 1, well a and induced reporter light, run 1, well b: higher = more light from the Notch target reporter with active Notch; control promoter light, run 1, well a and control promoter light, run 1, well b: higher = more light from the viral control promoter (cell number, transfection, viability); uninduced reporter light, run 1, well a: higher = more light from the Notch target reporter without active Notch", "call rule": "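Hit if the duplicate-averaged log2 ratio of induced to control-promoter light gives a plate-wise z beyond ±2, or induced to uninduced beyond ±1.8; weak-control or discordant-duplicate wells dropped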", "calls": "active = modifier hit (raised or lowered Notch signal); inactive = not a hit", "note": "The deposit covers about 22,000 reagents; shown is a random part of those with a known target gene and a result. Over the whole deposit, 403 (1.9%) got an active call. 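Unnormalised raw counts per well; ratio z-scores behind the hit calls and whether each hit raises or lowers signal are not deposited.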 Unmarked entries are inactive. Not given: the amount of reagent."}
{"Target gene": "tsh (teashirt)", "PubChem SID": "SID104183532", "induced reporter light, run 1, well a": 47945, "induced reporter light, run 1, well b": 46865, "control promoter light, run 1, well a": 46275, "control promoter light, run 1, well b": 57600, "uninduced reporter light, run 1, well a": 3690}
{"Target gene": "CG32391", "PubChem SID": "SID104188657", "induced reporter light, run 1, well a": 1.81e5, "induced reporter light, run 1, well b": 2.02e5, "control promoter light, run 1, well a": 2.30e5, "control promoter light, run 1, well b": 2.19e5, "uninduced reporter light, run 1, well a": 14260}
{"Target gene": "CG15717", "PubChem SID": "SID104199476", "induced reporter light, run 1, well a": 1.10e5, "induced reporter light, run 1, well b": 95820, "control promoter light, run 1, well a": 1.64e5, "control promoter light, run 1, well b": 1.37e5, "uninduced reporter light, run 1, well a": 7535}
{"Target gene": "CG13623", "PubChem SID": "SID104194417", "induced reporter light, run 1, well a": 1.24e5, "induced reporter light, run 1, well b": 1.11e5, "control promoter light, run 1, well a": 1.08e5, "control promoter light, run 1, well b": 1.23e5, "uninduced reporter light, run 1, well a": 9140}
{"Target gene": "CG7335", "PubChem SID": "SID104190608", "induced reporter light, run 1, well a": 1.68e5, "induced reporter light, run 1, well b": 1.31e5, "control promoter light, run 1, well a": 1.40e5, "control promoter light, run 1, well b": 1.26e5, "uninduced reporter light, run 1, well a": 9190}
{"Target gene": "Gyc88E (Guanylyl cyclase at 88E)", "PubChem SID": "SID104195339", "induced reporter light, run 1, well a": 1.74e5, "induced reporter light, run 1, well b": 1.86e5, "control promoter light, run 1, well a": 1.69e5, "control promoter light, run 1, well b": 1.83e5, "uninduced reporter light, run 1, well a": 18250}
{"Target gene": "Pgd (Phosphogluconate dehydrogenase)", "PubChem SID": "SID104198489", "induced reporter light, run 1, well a": 1.78e5, "induced reporter light, run 1, well b": 1.76e5, "control promoter light, run 1, well a": 2.21e5, "control promoter light, run 1, well b": 2.18e5, "uninduced reporter light, run 1, well a": 12100}
{"Target gene": "CG5928", "PubChem SID": "SID104198183", "induced reporter light, run 1, well a": 1.23e5, "induced reporter light, run 1, well b": 1.10e5, "control promoter light, run 1, well a": 2.09e5, "control promoter light, run 1, well b": 2.39e5, "uninduced reporter light, run 1, well a": 7210}
{"Target gene": "SdhBL (Succinate dehydrogenase, subunit B (iron-sulfur)-like)", "PubChem SID": "SID104199831", "induced reporter light, run 1, well a": 80190, "induced reporter light, run 1, well b": 91005, "control promoter light, run 1, well a": 95995, "control promoter light, run 1, well b": 1.38e5, "uninduced reporter light, run 1, well a": 10542}
{"Target gene": "Kaz-m1 (Kazal-type protease inhibitor m1)", "PubChem SID": "SID104196782", "induced reporter light, run 1, well a": 1.41e5, "induced reporter light, run 1, well b": 1.24e5, "control promoter light, run 1, well a": 1.86e5, "control promoter light, run 1, well b": 1.77e5, "uninduced reporter light, run 1, well a": 12575}
{"Target gene": "CG8997", "PubChem SID": "SID104181692", "induced reporter light, run 1, well a": 1.55e5, "induced reporter light, run 1, well b": 1.50e5, "control promoter light, run 1, well a": 1.53e5, "control promoter light, run 1, well b": 1.65e5, "uninduced reporter light, run 1, well a": 11255}
{"Target gene": "Cpr64Ac (Cuticular protein 64Ac)", "PubChem SID": "SID104188254", "induced reporter light, run 1, well a": 1.32e5, "induced reporter light, run 1, well b": 1.57e5, "control promoter light, run 1, well a": 1.41e5, "control promoter light, run 1, well b": 1.96e5, "uninduced reporter light, run 1, well a": 9132}
